PubChem BioAssay AID1224830 – NIAID | 2016
Shown is one part, drawn at random, of about 18,000 deposited reagents. Over the whole deposit, about 2,900 (16%) got an active call. 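Calls are made per well; low scores hint the gene aids the LPS response, high scores that it dampens it.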 Repeated entries: four replicate wells of each siRNA pool. No sequences are given here.

Purpose: 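Host factors that control LPS-induced TNF expression in human macrophages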 (primary screen)
System: human THP-1 monocytic leukaemia cells, TNF dual-luciferase reporter clone, PMA-differentiated to macrophage-like cells
Reagent: siRNA pool against human genes, 50 nM
Time to read-out: LPS for 4 h, given about 3 days after siRNA transfection
Treatment: bacterial LPS (TLR4 ligand), 10 ng/ml
Measurement: 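Ratio of firefly to renilla light, scaled to the plate median and expressed as a robust z-score per replicate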
Scale: TNF reporter robust z-score: higher = stronger TNF reporter response to LPS
Active means: 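Each well counts as active if its z-score is over 2.8 or under -1.5; controls are left without a call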

What is on record for D2HGDH (D-2-hydroxyglutarate dehydrogenase)?
TNF reporter robust z-score: 1.79; Outcome: inactive

For D2HGDH (D-2-hydroxyglutarate dehydrogenase), what was measured?
TNF reporter robust z-score: 2.94; Outcome: active

What did the screen give for D2HGDH (D-2-hydroxyglutarate dehydrogenase)?
TNF reporter robust z-score: 0.96; Outcome: inactive

How did the screen score D2HGDH (D-2-hydroxyglutarate dehydrogenase)?
TNF reporter robust z-score: 2.44; Outcome: inactive

Which result is listed for CAMKK2 (calcium/calmodulin dependent protein kinase kinase 2)?
TNF reporter robust z-score: -0.27; Outcome: inactive

With CAMKK2 (calcium/calmodulin dependent protein kinase kinase 2), how do the results read?
TNF reporter robust z-score: -0.04; Outcome: inactive

With CAMKK2 (calcium/calmodulin dependent protein kinase kinase 2), what does the deposit list?
TNF reporter robust z-score: -0.13; Outcome: inactive

Which result is listed for CAMKK2 (calcium/calmodulin dependent protein kinase kinase 2)?
TNF reporter robust z-score: -0.7; Outcome: inactive

With ZRANB3 (zinc finger RANBP2-type containing 3), how do the results read?
TNF reporter robust z-score: -0.96; Outcome: inactive

With ZRANB3 (zinc finger RANBP2-type containing 3), what does the deposit list?
TNF reporter robust z-score: -0.06; Outcome: inactive

How did the screen score ZRANB3 (zinc finger RANBP2-type containing 3)?
TNF reporter robust z-score: -0.18; Outcome: inactive

Which result is listed for ODF4 (outer dense fiber of sperm tails 4)?
TNF reporter robust z-score: -0.63; Outcome: inactive

What is on record for ODF4 (outer dense fiber of sperm tails 4)?
TNF reporter robust z-score: 0.43; Outcome: inactive

For ODF4 (outer dense fiber of sperm tails 4), how do the results read?
TNF reporter robust z-score: 0.02; Outcome: inactive

What is on record for ODF4 (outer dense fiber of sperm tails 4)?
TNF reporter robust z-score: 1.08; Outcome: inactive

How did the screen score TMC5 (transmembrane channel like 5)?
TNF reporter robust z-score: 1.31; Outcome: inactive

For TMC5 (transmembrane channel like 5), what does the deposit list?
TNF reporter robust z-score: 0.09; Outcome: inactive

How did the screen score TMC5 (transmembrane channel like 5)?
TNF reporter robust z-score: 0.66; Outcome: inactive

With TMC5 (transmembrane channel like 5), what was measured?
TNF reporter robust z-score: 0.1; Outcome: inactive

For DENND11 (DENN domain containing 11), what does the deposit list?
TNF reporter robust z-score: 1.11; Outcome: inactive

What did the screen give for DENND11 (DENN domain containing 11)?
TNF reporter robust z-score: 1.96; Outcome: inactive

With DENND11 (DENN domain containing 11), what does the deposit list?
TNF reporter robust z-score: 0.83; Outcome: inactive

With DENND11 (DENN domain containing 11), what does the deposit list?
TNF reporter robust z-score: 0.77; Outcome: inactive

With HMCES (5-hydroxymethylcytosine binding, ES cell specific), how do the results read?
TNF reporter robust z-score: 1.47; Outcome: inactive

For HMCES (5-hydroxymethylcytosine binding, ES cell specific), what does the deposit list?
TNF reporter robust z-score: 3.55; Outcome: active

For HMCES (5-hydroxymethylcytosine binding, ES cell specific), what was measured?
TNF reporter robust z-score: 2.85; Outcome: active

How did the screen score HMCES (5-hydroxymethylcytosine binding, ES cell specific)?
TNF reporter robust z-score: 2.16; Outcome: inactive

With VEZF1 (vascular endothelial zinc finger 1), how do the results read?
TNF reporter robust z-score: 0.07; Outcome: inactive

For VEZF1 (vascular endothelial zinc finger 1), what was measured?
TNF reporter robust z-score: 0.92; Outcome: inactive

Which result is listed for VEZF1 (vascular endothelial zinc finger 1)?
TNF reporter robust z-score: -0.06; Outcome: inactive

What is on record for VEZF1 (vascular endothelial zinc finger 1)?
TNF reporter robust z-score: 2.62; Outcome: inactive

For PRMT9 (protein arginine methyltransferase 9), what was measured?
TNF reporter robust z-score: 0.7; Outcome: inactive

For PRMT9 (protein arginine methyltransferase 9), how do the results read?
TNF reporter robust z-score: 0.91; Outcome: inactive

With PRMT9 (protein arginine methyltransferase 9), what does the deposit list?
TNF reporter robust z-score: 6.03; Outcome: active

With PRMT9 (protein arginine methyltransferase 9), what does the deposit list?
TNF reporter robust z-score: 6.6; Outcome: active

For PSMF1 (proteasome inhibitor subunit 1), how do the results read?
TNF reporter robust z-score: -0.76; Outcome: inactive

What is on record for PSMF1 (proteasome inhibitor subunit 1)?
TNF reporter robust z-score: -0.86; Outcome: inactive

For PSMF1 (proteasome inhibitor subunit 1), what was measured?
TNF reporter robust z-score: -1.13; Outcome: inactive

With PSMF1 (proteasome inhibitor subunit 1), what does the deposit list?
TNF reporter robust z-score: -0.26; Outcome: inactive

Which result is listed for MACROD2 (mono-ADP ribosylhydrolase 2)?
TNF reporter robust z-score: -0.65; Outcome: inactive

How did the screen score MACROD2 (mono-ADP ribosylhydrolase 2)?
TNF reporter robust z-score: 0.41; Outcome: inactive

What did the screen give for MACROD2 (mono-ADP ribosylhydrolase 2)?
TNF reporter robust z-score: -0.47; Outcome: inactive

For MACROD2 (mono-ADP ribosylhydrolase 2), what was measured?
TNF reporter robust z-score: 0.07; Outcome: inactive

What did the screen give for CKS2 (CDC28 protein kinase regulatory subunit 2)?
TNF reporter robust z-score: -0.6; Outcome: inactive

For CKS2 (CDC28 protein kinase regulatory subunit 2), how do the results read?
TNF reporter robust z-score: -0.7; Outcome: inactive

How did the screen score CKS2 (CDC28 protein kinase regulatory subunit 2)?
TNF reporter robust z-score: 0.45; Outcome: inactive

For CKS2 (CDC28 protein kinase regulatory subunit 2), what was measured?
TNF reporter robust z-score: -0.77; Outcome: inactive

6 entries from above, set out differently.
{"Target gene":"PRMT9 (protein arginine methyltransferase 9)","TNF reporter robust z-score":0.91,"Outcome":"inactive"}
{"Target gene":"PRMT9 (protein arginine methyltransferase 9)","TNF reporter robust z-score":6.03,"Outcome":"active"}
{"Target gene":"PRMT9 (protein arginine methyltransferase 9)","TNF reporter robust z-score":6.6,"Outcome":"active"}
{"Target gene":"PSMF1 (proteasome inhibitor subunit 1)","TNF reporter robust z-score":-0.76,"Outcome":"inactive"}
{"Target gene":"PSMF1 (proteasome inhibitor subunit 1)","TNF reporter robust z-score":-0.86,"Outcome":"inactive"}
{"Target gene":"PSMF1 (proteasome inhibitor subunit 1)","TNF reporter robust z-score":-1.13,"Outcome":"inactive"}
